Measured values taken from the supplement of paper PMC7666118.
Some of the results follow.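 Rule for the calls: active = dose-dependent thermal stabilisation significant by F-test of dose-response against flat model at 10% FDR; inactive = not significant.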

Sequences of proteins named here, by UniProt entry; tags and fusion partners are left off. A change or cut given only in a name is not applied to a line headed by its entry.
UniProt Q13404: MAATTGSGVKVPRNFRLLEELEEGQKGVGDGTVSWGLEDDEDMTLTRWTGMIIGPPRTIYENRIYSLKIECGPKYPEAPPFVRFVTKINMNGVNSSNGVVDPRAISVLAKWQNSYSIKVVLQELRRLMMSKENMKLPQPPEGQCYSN
UniProt Q9H9H4: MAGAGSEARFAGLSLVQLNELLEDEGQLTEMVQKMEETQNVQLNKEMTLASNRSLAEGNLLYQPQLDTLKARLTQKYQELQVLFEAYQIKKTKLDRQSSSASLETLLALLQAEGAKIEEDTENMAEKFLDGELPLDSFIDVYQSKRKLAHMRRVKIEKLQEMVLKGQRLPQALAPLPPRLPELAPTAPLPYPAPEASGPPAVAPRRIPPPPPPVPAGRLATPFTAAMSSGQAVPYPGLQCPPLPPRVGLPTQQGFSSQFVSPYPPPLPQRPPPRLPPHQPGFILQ
UniProt O43516: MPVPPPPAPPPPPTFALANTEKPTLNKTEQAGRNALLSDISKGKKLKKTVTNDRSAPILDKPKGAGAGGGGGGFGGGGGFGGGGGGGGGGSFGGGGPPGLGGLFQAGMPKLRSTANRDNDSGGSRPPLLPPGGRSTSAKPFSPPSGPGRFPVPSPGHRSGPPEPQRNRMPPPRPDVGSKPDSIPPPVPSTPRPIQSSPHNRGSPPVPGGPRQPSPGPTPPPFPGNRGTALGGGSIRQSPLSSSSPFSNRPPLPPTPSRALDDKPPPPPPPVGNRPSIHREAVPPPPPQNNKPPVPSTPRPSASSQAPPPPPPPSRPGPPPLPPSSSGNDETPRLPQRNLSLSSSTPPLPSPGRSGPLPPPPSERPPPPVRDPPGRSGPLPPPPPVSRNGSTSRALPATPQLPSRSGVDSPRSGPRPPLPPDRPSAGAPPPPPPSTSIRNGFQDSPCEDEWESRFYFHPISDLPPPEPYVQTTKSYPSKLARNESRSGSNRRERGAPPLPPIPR
UniProt Q641Q2, whole entry: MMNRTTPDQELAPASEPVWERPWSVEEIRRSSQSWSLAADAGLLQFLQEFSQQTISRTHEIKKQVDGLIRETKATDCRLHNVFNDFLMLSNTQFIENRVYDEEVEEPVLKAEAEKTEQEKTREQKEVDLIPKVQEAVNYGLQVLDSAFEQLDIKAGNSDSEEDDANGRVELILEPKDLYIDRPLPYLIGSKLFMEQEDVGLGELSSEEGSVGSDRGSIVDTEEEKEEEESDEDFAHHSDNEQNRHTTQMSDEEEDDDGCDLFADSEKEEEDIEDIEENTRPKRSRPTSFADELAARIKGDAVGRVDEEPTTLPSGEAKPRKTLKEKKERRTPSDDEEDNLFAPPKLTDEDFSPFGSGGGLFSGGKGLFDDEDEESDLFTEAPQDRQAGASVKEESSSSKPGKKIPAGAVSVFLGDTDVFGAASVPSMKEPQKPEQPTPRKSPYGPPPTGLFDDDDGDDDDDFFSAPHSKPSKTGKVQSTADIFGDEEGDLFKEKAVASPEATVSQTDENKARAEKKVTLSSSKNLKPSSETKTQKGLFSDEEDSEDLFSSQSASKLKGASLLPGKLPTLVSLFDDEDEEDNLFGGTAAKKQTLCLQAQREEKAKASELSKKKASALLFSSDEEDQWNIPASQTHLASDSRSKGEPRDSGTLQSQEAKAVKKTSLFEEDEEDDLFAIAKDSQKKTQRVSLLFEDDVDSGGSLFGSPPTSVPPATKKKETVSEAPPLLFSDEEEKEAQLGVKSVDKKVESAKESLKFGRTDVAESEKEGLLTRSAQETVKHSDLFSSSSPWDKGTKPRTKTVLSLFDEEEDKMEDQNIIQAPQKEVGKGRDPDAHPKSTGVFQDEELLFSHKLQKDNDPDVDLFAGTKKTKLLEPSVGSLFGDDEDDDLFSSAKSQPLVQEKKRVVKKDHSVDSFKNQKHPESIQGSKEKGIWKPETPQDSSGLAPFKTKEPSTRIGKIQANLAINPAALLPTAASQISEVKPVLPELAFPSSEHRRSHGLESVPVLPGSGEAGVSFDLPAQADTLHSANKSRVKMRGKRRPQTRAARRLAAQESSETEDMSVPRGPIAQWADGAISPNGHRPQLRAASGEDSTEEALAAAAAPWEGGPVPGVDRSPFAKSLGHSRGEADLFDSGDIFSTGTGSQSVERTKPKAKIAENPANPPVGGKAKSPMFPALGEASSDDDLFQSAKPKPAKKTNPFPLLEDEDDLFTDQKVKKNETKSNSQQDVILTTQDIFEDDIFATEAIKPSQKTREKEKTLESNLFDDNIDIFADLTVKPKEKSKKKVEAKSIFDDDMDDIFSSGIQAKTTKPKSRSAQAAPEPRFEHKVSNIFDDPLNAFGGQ
UniProt P63104: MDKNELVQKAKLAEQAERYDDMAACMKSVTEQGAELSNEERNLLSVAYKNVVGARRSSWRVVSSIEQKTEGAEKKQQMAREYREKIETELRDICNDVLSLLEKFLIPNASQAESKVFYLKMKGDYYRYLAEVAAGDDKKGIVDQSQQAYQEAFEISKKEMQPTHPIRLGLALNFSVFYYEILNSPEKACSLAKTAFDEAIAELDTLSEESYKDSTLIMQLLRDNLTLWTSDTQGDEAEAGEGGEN
UniProt Q13426: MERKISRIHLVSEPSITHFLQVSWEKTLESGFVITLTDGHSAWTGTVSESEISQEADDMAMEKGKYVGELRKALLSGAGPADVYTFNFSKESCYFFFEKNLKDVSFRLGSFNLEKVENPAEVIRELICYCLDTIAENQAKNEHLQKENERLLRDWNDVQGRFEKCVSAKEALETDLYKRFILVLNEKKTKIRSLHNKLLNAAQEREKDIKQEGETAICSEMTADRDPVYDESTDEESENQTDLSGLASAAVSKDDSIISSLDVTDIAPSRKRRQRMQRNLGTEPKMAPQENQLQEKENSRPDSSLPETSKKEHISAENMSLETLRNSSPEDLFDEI
UniProt Q9UMX0, whole entry: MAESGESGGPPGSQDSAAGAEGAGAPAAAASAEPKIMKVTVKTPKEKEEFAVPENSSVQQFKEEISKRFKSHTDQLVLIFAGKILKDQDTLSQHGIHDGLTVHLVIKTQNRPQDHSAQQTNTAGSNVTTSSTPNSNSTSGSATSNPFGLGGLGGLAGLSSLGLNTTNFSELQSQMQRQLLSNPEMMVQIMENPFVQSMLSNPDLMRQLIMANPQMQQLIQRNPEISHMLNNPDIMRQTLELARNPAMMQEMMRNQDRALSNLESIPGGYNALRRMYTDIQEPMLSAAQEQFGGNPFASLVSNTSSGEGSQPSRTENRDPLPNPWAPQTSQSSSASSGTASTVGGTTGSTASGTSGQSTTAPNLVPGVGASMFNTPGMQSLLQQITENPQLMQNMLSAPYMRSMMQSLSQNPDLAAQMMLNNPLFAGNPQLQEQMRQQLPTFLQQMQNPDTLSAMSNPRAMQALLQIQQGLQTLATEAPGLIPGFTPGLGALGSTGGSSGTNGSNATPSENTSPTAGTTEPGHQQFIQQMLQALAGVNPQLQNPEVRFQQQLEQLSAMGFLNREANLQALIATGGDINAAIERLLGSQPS
UniProt Q6P4I2: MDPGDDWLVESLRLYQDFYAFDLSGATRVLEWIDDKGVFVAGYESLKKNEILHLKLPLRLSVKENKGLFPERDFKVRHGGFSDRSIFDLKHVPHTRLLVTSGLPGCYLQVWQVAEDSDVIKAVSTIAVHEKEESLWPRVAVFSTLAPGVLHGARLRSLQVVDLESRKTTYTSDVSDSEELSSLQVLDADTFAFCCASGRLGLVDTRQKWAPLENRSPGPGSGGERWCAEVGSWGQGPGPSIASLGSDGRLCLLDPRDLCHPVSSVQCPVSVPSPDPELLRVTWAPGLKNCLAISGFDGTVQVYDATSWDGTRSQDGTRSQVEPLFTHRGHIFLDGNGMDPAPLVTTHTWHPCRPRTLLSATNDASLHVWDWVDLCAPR
UniProt Q9C0J8: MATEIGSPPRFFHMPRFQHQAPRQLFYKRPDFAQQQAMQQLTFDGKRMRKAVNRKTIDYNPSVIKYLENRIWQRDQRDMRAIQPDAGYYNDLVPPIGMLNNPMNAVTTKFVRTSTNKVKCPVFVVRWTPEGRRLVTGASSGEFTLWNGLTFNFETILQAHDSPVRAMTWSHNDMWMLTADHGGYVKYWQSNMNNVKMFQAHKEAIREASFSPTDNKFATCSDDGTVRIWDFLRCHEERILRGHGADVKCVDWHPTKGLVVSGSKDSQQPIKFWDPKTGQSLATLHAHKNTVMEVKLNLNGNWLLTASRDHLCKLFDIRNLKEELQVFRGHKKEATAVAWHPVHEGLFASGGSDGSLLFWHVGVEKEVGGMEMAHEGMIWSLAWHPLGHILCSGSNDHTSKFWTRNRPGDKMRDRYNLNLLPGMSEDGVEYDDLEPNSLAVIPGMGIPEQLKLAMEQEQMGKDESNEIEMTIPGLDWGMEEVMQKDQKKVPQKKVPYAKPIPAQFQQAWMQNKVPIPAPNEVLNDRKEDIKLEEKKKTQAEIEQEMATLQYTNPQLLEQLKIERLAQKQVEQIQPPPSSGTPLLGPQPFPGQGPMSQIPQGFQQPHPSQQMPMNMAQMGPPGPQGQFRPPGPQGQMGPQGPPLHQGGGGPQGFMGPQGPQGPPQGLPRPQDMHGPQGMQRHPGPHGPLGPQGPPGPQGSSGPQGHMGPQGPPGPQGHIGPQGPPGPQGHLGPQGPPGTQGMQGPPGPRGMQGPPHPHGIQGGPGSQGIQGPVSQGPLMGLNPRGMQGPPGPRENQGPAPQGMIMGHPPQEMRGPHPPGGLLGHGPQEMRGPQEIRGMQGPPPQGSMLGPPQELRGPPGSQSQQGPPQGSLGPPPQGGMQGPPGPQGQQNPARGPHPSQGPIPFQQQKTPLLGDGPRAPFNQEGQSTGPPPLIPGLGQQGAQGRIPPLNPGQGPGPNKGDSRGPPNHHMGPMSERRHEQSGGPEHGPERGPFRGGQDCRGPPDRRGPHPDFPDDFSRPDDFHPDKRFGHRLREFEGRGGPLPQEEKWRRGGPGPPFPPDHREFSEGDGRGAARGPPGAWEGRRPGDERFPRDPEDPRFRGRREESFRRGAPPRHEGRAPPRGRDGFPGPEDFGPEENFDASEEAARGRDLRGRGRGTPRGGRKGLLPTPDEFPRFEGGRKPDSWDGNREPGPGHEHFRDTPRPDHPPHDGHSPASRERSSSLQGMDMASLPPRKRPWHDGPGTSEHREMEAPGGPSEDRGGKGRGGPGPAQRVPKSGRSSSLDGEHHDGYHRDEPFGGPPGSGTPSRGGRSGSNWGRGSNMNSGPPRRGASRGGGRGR
UniProt O43542: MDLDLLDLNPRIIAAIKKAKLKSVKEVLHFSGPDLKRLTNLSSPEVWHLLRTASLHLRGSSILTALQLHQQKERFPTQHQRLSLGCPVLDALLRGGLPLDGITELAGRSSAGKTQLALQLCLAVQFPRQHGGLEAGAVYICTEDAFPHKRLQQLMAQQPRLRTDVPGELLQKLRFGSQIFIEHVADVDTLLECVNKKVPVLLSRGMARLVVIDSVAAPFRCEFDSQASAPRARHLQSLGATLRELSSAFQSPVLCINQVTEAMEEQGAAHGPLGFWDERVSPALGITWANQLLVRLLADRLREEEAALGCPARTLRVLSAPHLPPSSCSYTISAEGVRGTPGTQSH
UniProt Q8N1B4: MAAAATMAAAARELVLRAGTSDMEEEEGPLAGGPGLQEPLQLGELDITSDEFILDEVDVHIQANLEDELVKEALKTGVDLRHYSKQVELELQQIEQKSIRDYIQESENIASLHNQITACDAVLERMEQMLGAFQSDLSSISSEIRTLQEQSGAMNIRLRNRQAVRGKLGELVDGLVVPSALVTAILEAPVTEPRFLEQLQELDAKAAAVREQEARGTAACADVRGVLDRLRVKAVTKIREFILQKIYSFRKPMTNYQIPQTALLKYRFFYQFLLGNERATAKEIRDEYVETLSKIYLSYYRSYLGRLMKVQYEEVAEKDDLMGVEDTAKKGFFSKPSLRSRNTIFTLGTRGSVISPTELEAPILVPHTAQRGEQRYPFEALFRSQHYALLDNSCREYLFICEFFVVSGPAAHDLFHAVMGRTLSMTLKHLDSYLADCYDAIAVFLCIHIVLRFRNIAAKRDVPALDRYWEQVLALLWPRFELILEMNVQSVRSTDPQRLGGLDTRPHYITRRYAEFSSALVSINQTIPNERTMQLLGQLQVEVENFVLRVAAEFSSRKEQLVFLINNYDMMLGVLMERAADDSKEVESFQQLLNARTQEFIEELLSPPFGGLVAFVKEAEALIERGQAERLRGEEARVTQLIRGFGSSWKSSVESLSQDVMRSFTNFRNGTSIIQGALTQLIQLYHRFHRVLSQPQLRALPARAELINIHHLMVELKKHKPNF
UniProt P61758, whole entry: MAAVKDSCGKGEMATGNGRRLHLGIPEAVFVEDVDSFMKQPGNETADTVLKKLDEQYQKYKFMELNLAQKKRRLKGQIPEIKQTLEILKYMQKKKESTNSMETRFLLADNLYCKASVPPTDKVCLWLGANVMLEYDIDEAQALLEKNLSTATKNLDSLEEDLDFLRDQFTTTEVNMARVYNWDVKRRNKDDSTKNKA
UniProt P61960, whole entry: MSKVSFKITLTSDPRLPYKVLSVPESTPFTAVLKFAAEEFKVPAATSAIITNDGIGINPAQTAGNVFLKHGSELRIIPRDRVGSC

These targets were tested with Nc1nc2c(ncn2[C@@H]2O[C@H](COP(=O)(O)OP(=O)(O)OP(=O)(O)O)[C@@H](O)[C@H]2O)c(=O)[nH]1 (assay: dose-dependent thermal stabilisation call (2D-TPP, DLPTP, 10% FDR) (binary (1 = stabilised)); higher = stabilised by the compound). Conditions: system: Jurkat gel-filtered lysate; concentration range 1-500 µM.

| Target | dose-dependent thermal stabilisation call |
| --- | --- |
| UPF3B (UniProt Q9BZI7) | inactive: 0 |
| UPRT (UniProt Q96BW1) | active: 1 |
| UBE2S (UniProt Q16763) | inactive: 0 |
| ZBTB10 (UniProt Q96DT7) | inactive: 0 |
| UIMC1 (UniProt Q96RL1) | inactive: 0 |
| UBE2V1 (UniProt Q13404) | inactive: 0 |
| WDFY1 (UniProt Q8IWB7) | inactive: 0 |
| VPS37B (UniProt Q9H9H4) | inactive: 0 |
| URI1 (UniProt O94763) | inactive: 0 |
| WIPF1 (UniProt O43516) | inactive: 0 |
| WASHC2A (UniProt Q641Q2) | inactive: 0 |
| WDR12 (UniProt Q9GZL7) | inactive: 0 |
| UROS (UniProt P10746) | inactive: 0 |
| VMAC (UniProt Q2NL98) | inactive: 0 |
| VAPB (UniProt O95292) | inactive: 0 |
| YWHAZ (UniProt P63104) | inactive: 0 |
| UBR7 (UniProt Q8N806) | inactive: 0 |
| ZC3HC1 (UniProt Q86WB0) | inactive: 0 |

| Target | dose-dependent thermal stabilisation call |
| --- | --- |
| WASF1 (UniProt Q92558) | inactive: 0 |
| UBQLN4 (UniProt Q9NRR5) | inactive: 0 |
| XRCC4 (UniProt Q13426) | inactive: 0 |
| USP47 (UniProt Q96K76) | inactive: 0 |
| UBQLN1 (UniProt Q9UMX0) | inactive: 0 |
| UBFD1 (UniProt O14562) | inactive: 0 |
| WDR73 (UniProt Q6P4I2) | inactive: 0 |
| WDR45 (UniProt Q9Y484) | inactive: 0 |
| WDR33 (UniProt Q9C0J8) | inactive: 0 |
| XRCC3 (UniProt O43542) | active: 1 |
| VPS52 (UniProt Q8N1B4) | inactive: 0 |
| VBP1 (UniProt P61758) | inactive: 0 |
| UFM1 (UniProt P61960) | inactive: 0 |
| ZC3H10 (UniProt Q96K80) | inactive: 0 |
| UQCC1 (UniProt Q9NVA1) | inactive: 0 |
| WBP4 (UniProt O75554) | inactive: 0 |
| UBXN4 (UniProt Q92575) | inactive: 0 |
| VPS35 (UniProt Q96QK1) | inactive: 0 |

Quoted from the listing (two entries):

| Target | dose-dependent thermal stabilisation call |
| --- | --- |
| VPS52 (UniProt Q8N1B4) | inactive: 0 |
| VBP1 (UniProt P61758) | inactive: 0 |
